For at least one compound, name, drawing or mass did not settle the structure.
Experiments:
[1] = tested on: cerebral ischemia-reperfusion rats; experiment: Behavioral disorder and cerebral infarct area in cerebral ischemia-reperfusion rats (MCAO by nylon suture, 1.5 h); assay type: in vivo, male Wistar rats
Excerpt: Experimental Animal: The same as Example 1
Experimental Equipments: The same as Example 7
Experimental Methods: The rats were anesthetized, and fixed in lateral decubitus position. Under the operating microscope, a midline neck skin incision was made to expose the left common cartotid artery. The surrounding nerves and fascia from the bifurcation of common carotid artery to the vascular of basis cranii were removed.
The internal carotid artery was then separated and carefully separated free from vagus nerve. Pterygopalatine artery was ligated at the root of the internal carotid artery. A 6# needle for injection containing 3# nylon suture (diameter of 0.285 mm) was punctured into the free end of the external carotid artery, advancing the nylon suture into the blood vascular. The needle was carefully withdrawn, and the nylon suture was guided into the internal carotid artery from the distal end of the external carotid artery up till to Willis ring, so as to effectively block the middle cerebral artery.
Depending on the body weight, the distance from the inserted nylon suture to the bifurcation of common carotid artery was 18 to 20 mm. The free end of the external carotid artery and the nylon suture therein were ligated together, in order to prevent bleeding. The muscle and the skin were then sutured layer by layer, and penicillin was dropped to prevent infection. […]

[2] = tested on: permanent cerebral ischemic rats; experiment: Behavioral disorder and cerebral infarct area in permanent cerebral ischemic rats (FeCl3 on middle cerebral artery); assay type: in vivo, Wistar rats
Procedure: Experimental Animal: The same as Example 1. Experimental Equipments: COOLPIX955 digital camera, 722 grating spectroscope, XHF-1 high-speed disperser, YKH-II liquid high-speed mixer, WZ-50C2 micro infusion pump. Experimental Methods: Wistar rats were anesthetized by intraperitoneally injecting 12% chloral hydrate in 350 mg/kg, and fixed in lateral decubitus position. The skin at the midpoint on the line from exterior auditory canal to canthus was cut. The muscle was separated layer by layer to expose zygomatic arch and the squamous part of temporal bone. The zygomatic arch was scissored and then placed under an operating microscope. A window of 2 mm diameter was drilled by using a dentistry drill at a position of 2 mm under the anterior joint between zygomatic arch and the squamous part of temporal bone, so as to expose the middle cerebral artery. A little piece of filter paper was applied onto the middle artery, and 10 μl of 50% FeCl3 aqueous solution was dripped onto the filter paper. The filter paper was removed after 30 min, and washed with physiological brine. Two to three drops of penicillin (1.6×10^5 U/mL) were added so as to prevent infection of the cut. Then the cut was sutured layer by layer.

COCCOC(=O)C1=C(C)NC(C)=C(C(=O)OC(C)C)C1c1cccc([N+](=O)[O-])c1 (stereo not shown) [Nimodipine]
significant: neurological deficit scores (effect in words) ([1]; 24 hours after intravenous injection) | cerebral infarct area (effect in words) ([1]; intravenous administration, effect increases with dose) | cerebral infarct area (effect in words) ([2]; dose not given) | neurological deficit scores (effect in words) ([2]; intravenous injection, vs model control group)

Reference: patent US9795585B2, “Methods of using L-butylphthalide for the prevention and treatment of cerebral ischemia disease” (priority 2004, dated 2017)
